Among the data in publication doi:10.1101/2021.12.06.470227 are binding values, retold here.

These are yes or no findings as the source states them, for the method shown. In cells and extracts the contact can be indirect. Some binding calls cover weakened binding; strength is not graded here. Where a sequence is shown, tags or fusion partners need not be part of it.

In this experiment the target is Pin1 (peptidyl prolyl cis/trans isomerase) (human (endogenous in HEK293)), Q13526. As to the kind of experiment: co-IP. The settings on record: remark: other sources report otherwise.

B1: FLAG-full length KHSRP (K-homology splicing regulatory protein), Q92945 1-711 (protein)
chain: MSDYSTGGPPPGPPPPAGGGGGAGGAGGGPPPGPPGAGDRGGGGPGGGGPGGGSAGGPSQPPGGGGPGIRKDAFADAVQRARQIAAKIGGDAATTVNNSTPDFGFGGQKRQLEDGDQPESKKLASQGDSISSQLGPIHPPPRTSMTEEYRVPDGMVGLIIGRGGEQINKIQQDSGCKVQISPDSGGLPERSVSLTGAPESVQKAKMMLDDIVSRGRGGPPGQFHDNANGGQNGTVQEIMIPAGKAGLVIGKGGETIKQLQERAGVKMILIQDGSQNTNVDKPLRIIGDPYKVQQACEMVMDILRERDQGGFGDRNEYGSRIGGGIDVPVPRHSVGVVIGRSGEMIKKIQNDAGVRIQFKQDDGTGPEKIAHIMGPPDRCEHAARIINDLLQSLRSGPPGPPGGPGMPPGGRGRGRGQGNWGPPGGEMTFSIPTHKCGLVIGRGGENVKAINQQTGAFVEISRQLPPNGDPNFKLFIIRGSPQQIDHAKQLIEEKIEGPLCPVGPGPGGPGPAGPMGPFNPGPFNQGPPGAPPHAGGPPPHQYPPQGWGNTYPQWQPPAPHDPSKAAAAAADPNAAWAAYYSHYYQQPPGPVPGPAPAPAAPPAQGEPPQPPPTGQSDYTKAWEEYYKKIGQQPQQPGAPPQQDYTKAWEEYYKKQAQVATGGGPGAPPGSQPDYSAAWAEYYRQQAAYYGQTPGPGGPQPPPTQQGQQQAQ
As to B1, the binding entry is listed as “binds”.
